# PubChem BioAssay AID504791 – Drosophila RNAi Screening Center | 2011
# Assay: 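Genes of the fly required for silencing by miRNA, siRNA or endo-siRNA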 (primary screen)
# Cells: Drosophila S2-derived reporter cells
# Reagents: long dsRNA against Drosophila genes, about 150-250 ng dsRNA per well (siRNA assay); about 80-120 ng (miRNA assay)
# Timing: about 5 days (siRNA assay); about 4 days (miRNA assay)
# Treatment: copper sulfate induction of reporters: 25 µM (siRNA assay); 200 mM stated (miRNA assay), 1-2 days before reading
# Measured: 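Dual luciferase assay: Renilla to firefly signal ratio in each well, scaled to the mean ratio of its plate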
# Direction: siRNA reporter hit score: higher = 3 marks a strong hit with raised ratio; -3 a strong hit with lowered ratio
# Call rule: 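a well was a first-pass pick when its plate-scaled ratio rose above 1.5 (siRNA assay) or 1.6 (miRNA assay), or dropped below 0.6; a gene counted only if two separate dsRNAs agreed on retest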
# In all, the deposit lists about 23,000 reagents; below is an unselected part of those that have a named target and a result. Over the whole deposit, 199 (0.86%) got an active call. 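Plate-scaled ratios behind the calls are not deposited; printed light signals are raw; many rows marked increased or decreased are still called inactive.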 Entries without a mark were called inactive. A plus sign joins genes that one reagent is predicted to hit. No sequences are given here.
The opening 3 records as a preview:
gene knocked down,dsRNA,siRNA reporter hit score,stable siRNA reporter change,miRNA reporter change,"stable assay Renilla, run 1 (luminescence)","stable assay firefly, run 1 (luminescence)"
Eip78C,DRSC11864,,reporter ratio raised past the hit cutoff,,5535,1.86e5
Eip78C,DRSC23097,,,,2831,2.36e5
Toll-6,DRSC11304,,,,6764,4.01e5

The listing, from the start:
gene knocked down,dsRNA,siRNA reporter hit score,stable siRNA reporter change,miRNA reporter change,"stable assay Renilla, run 1 (luminescence)","stable assay firefly, run 1 (luminescence)"
Eip78C,DRSC11864,,reporter ratio raised past the hit cutoff,,5535,1.86e5
Eip78C,DRSC23097,,,,2831,2.36e5
Toll-6,DRSC11304,,,,6764,4.01e5
Sardh,DRSC06981,,,,12118,3.58e5
CG32160 (retired record),DRSC22904,,,,3507,3.34e5
CG33298,DRSC02210,,,,8108,3.79e5
CG33298,DRSC02672,,,,15926,9.96e5
prc,DRSC11385,,,,6579,3.28e5
CG15247,DRSC17976,,,,5263,3.37e5
vig,DRSC03630,,,,5128,4.26e5
vig,DRSC03631,,,,17655,1.60e6
vig,DRSC21672,,,,9018,4.75e5
Sptr,DRSC18719,,,,9535,5.86e5
Alg10,DRSC10892,,,,5515,3.05e5
Tango8,DRSC06474,,,reporter ratio lowered past the hit cutoff,5183,4.77e5
CkIIalpha-i3,DRSC08651,,,,11403,4.87e5
Rip11,DRSC20000,,,,8378,4.56e5
Septin1,DRSC20573,,,,5818,4.12e5
Srrm234,DRSC07955,,,,6906,4.82e5
Srrm234,DRSC08606,,,,8038,3.24e5
Acbp2,DRSC11141,,,,4987,3.51e5
Gyc32E,DRSC01154,,,,4295,2.76e5
smog,DRSC00334,,,,6831,4.12e5
smog,DRSC00335,,,,6727,3.00e5
smog,DRSC23053,,,,3555,3.08e5
smog,DRSC27223,,,reporter ratio lowered past the hit cutoff,,
CG12239,DRSC17832,,,,8004,5.39e5
CG31638,DRSC02269,,,,8158,3.52e5
CG31638,DRSC03259,,,,7632,5.84e5
Tdg,DRSC17119,,,,6830,2.95e5
Tdg,DRSC17169,,,,5688,3.56e5
Ufsp1,DRSC04958,,,,4447,4.42e5
CG42758,DRSC10021,,,,6466,3.50e5
CG3168,DRSC18287,,,,7067,3.31e5
CG32811,DRSC22649,,,,3619,3.09e5
CG31827 + CG18478,DRSC01958,,,,8130,3.61e5
Klp61F,DRSC08671,,,,7299,2.89e5
CAH6,DRSC15505,,,,6818,4.20e5
CG12278,DRSC14494,,,,6183,3.09e5
olf413,DRSC11543,,,,7183,5.79e5
olf413,DRSC11679,,,,5802,4.34e5
olf413,DRSC11721,,,,6662,3.60e5
olf413,DRSC11833,,,,5203,3.75e5
rpk,DRSC12386,,,,9002,3.38e5
rpk,DRSC21656,,,,8847,4.68e5
CG13698,DRSC10047,,,,9928,4.24e5
Klp64D,DRSC11204,,,,5147,3.82e5
kra,DRSC12320,,,,10584,5.00e5
CG7484,DRSC10853,,,,7116,3.46e5
CG3513,DRSC00608,,,,7224,3.59e5
CG10086,DRSC14183,,,,6942,3.79e5
CG9855,DRSC12344,,,,4271,3.24e5
Charon,DRSC00679,,,,24441,2.94e5
CG13766,DRSC02271,,,,7324,3.41e5
Fum1,DRSC18344,,,,4736,5.37e5
Gpo3,DRSC01978,,,,7171,4.44e5
CG31342,DRSC15349,,,,8547,4.36e5
CG31342,DRSC16246,,,,6835,6.04e5
Or69a,DRSC11243,,,,6342,3.72e5
Itpr,DRSC12354,,,,7060,4.28e5
CG14229,DRSC19585,,,,5584,4.94e5
CG14229,DRSC23149,,,,3747,2.93e5
CG32847,DRSC22901,,,,3748,3.71e5
CG9406,DRSC04552,,,,8449,7.30e5
meep,DRSC07948,,,,5619,4.12e5
Src42A,DRSC04915,,,,5779,3.36e5
CG34168,DRSC01938,,,,6470,5.16e5
CG2003,DRSC15411,,,,6467,3.46e5
CG10428,DRSC02054,,,,27543,1.47e6
BORCS7 + CG13430,DRSC06392,,,,11758,4.01e5
BORCS7 + CG13430,DRSC06707,,,,7446,4.70e5
GluRIIE,DRSC13431,,,,4863,4.58e5
aft,DRSC07576,,,,9893,3.27e5
CG13685,DRSC10043,,,,5530,4.05e5
CG34330,DRSC20043,,,,5855,5.04e5
Cyp6a15Psi,DRSC07377,,reporter ratio raised past the hit cutoff,,7323,2.62e5
CG42591,DRSC08905,,,,4755,4.20e5
AttA,DRSC05926,,,,8807,6.45e5
CG9890,DRSC04590,,,,5596,3.23e5
fax,DRSC11345,,,,8751,3.00e5
CG14439,DRSC17931,,,,5232,2.87e5
bcn92,DRSC18741,,,,5028,4.01e5
CG34436,DRSC15164,,,,7163,4.34e5
CG7518,DRSC16253,,,,6063,3.98e5
Nepl8,DRSC02759,,,,7443,4.81e5
CG8892,DRSC03121,,,,11847,1.24e5
CG17107,DRSC02575,,,,4727,4.65e5
CG17107,DRSC22627,,,,3395,3.50e5
l(3)S110416 (retired record),DRSC17094,,,,9886,3.69e5
Gr5a,DRSC18085,,,,6270,2.92e5
Egm,DRSC07319,,,,8282,4.82e5
Egm,DRSC22860,,,,6104,6.87e5
CG18265,DRSC10310,,,,7483,3.04e5
temp,DRSC18271,,,,6187,2.91e5
CG14369,DRSC14831,,,,6460,4.07e5
CG33490,DRSC10587,,,,7909,5.04e5
mrn,DRSC10913,-3,,,5898,2.44e5
Ac76E,DRSC09642,,,,4851,4.37e5
Ac76E,DRSC09662,,,,8515,2.94e5
RpS9,DRSC11273,,,reporter ratio lowered past the hit cutoff (active),6724,3.03e5
Cdc14,DRSC03013,,,,6490,3.97e5
CG13744,DRSC06415,,,,5692,3.88e5
DMAP1,DRSC06044,,,,6970,3.27e5
Ir60b,DRSC04217,,,,6510,3.02e5
vn,DRSC11408,,,,6042,2.87e5
vn,DRSC23221,,,,4731,3.07e5
